The source of these data is paper doi:10.1101/2020.10.02.323576.

Amino acid sequences for entries named in this document (tags omitted). A change or cut given only in a name is not applied to a line headed by its entry.
UniProt Q9BY78: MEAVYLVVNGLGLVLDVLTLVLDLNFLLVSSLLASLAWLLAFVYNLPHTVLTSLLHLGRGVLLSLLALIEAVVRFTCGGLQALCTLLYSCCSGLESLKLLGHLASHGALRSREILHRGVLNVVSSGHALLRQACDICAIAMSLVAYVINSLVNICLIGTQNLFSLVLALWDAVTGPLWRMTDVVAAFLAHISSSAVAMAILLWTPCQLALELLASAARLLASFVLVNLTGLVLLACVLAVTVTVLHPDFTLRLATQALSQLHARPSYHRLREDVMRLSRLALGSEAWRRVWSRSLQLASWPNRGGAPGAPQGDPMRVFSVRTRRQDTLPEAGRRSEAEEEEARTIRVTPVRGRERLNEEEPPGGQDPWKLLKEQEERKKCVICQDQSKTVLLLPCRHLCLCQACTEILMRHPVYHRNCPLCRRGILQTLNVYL

These are yes or no findings as the source states them, for the method shown. In cells and extracts the contact can be indirect. Some binding calls cover weakened binding; strength is not graded here. For some of these results: Tags and fused reporters may be left off the sequences shown.

Holding throughout (assay): co-IP
In one experiment the target is T1, GFP-UBE2J1 wild type (UniProt Q9Y385).
T1 sequence: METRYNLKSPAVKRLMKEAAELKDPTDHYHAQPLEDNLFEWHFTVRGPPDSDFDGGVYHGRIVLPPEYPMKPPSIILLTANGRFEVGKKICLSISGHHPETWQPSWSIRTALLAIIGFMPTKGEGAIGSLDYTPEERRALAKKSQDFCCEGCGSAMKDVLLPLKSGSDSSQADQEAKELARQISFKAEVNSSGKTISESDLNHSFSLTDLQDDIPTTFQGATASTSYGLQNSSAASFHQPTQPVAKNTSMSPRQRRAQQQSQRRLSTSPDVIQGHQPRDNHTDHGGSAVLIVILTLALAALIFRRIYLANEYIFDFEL

The target of a further experiment is T2, GFP-UBE2J2 (UniProt Q8N2K1).
T2 sequence: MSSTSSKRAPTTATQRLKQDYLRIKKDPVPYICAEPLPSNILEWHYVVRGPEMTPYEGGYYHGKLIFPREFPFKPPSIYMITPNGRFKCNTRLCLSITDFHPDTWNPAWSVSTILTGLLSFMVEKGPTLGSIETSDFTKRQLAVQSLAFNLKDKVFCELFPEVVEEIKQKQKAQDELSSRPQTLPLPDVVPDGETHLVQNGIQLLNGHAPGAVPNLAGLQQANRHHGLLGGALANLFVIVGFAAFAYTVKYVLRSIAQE

For a further experiment, the target named is RFP-RNF26 I382R (UniProt Q9BY78).
For a further experiment, the target named is RFP-RNF26 wild type (UniProt Q9BY78).

In the case of “RFP-RNF26 wild type (from UniProt Q9BY78 1-433) (enzyme)”, the binding result with GFP-UBE2J1 wild type and with GFP-UBE2J2 was “binds” in each case.

B1: endogenous UBE2J1 (enzyme, UniProt Q9Y385 1-318)
chain: METRYNLKSPAVKRLMKEAAELKDPTDHYHAQPLEDNLFEWHFTVRGPPDSDFDGGVYHGRIVLPPEYPMKPPSIILLTANGRFEVGKKICLSISGHHPETWQPSWSIRTALLAIIGFMPTKGEGAIGSLDYTPEERRALAKKSQDFCCEGCGSAMKDVLLPLKSGSDSSQADQEAKELARQISFKAEVNSSGKTISESDLNHSFSLTDLQDDIPTTFQGATASTSYGLQNSSAASFHQPTQPVAKNTSMSPRQRRAQQQSQRRLSTSPDVIQGHQPRDNHTDHGGSAVLIVILTLALAALIFRRIYLANEYIFDFEL
B1: the binding entry in the experiment with RFP-RNF26 I382R and in the experiment with RFP-RNF26 wild type was “binds” in each case.
